In the supplement of paper PMC10338343:
± gives the standard deviation. This is one part of the list. The uncertainty is large for many entries.

System: EfPiwi piRISC loaded with L1MC piRNA (26 nt)
Experiment: pre-steady-state target cleavage rate (min^-1); guide: L1MC piRNA 5'p-UAACUAAAUACUAUGCAAGCUGUAGG; MIWI and MILI are mouse PIWI proteins and EfPiwi is from a freshwater sponge; tags in brackets are library labels; higher = faster piRNA-guided slicing of the target
Conditions: auxiliary factor: 500 nM Ephydatia muelleri Gtsf1
Procedure, shortened: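 For Cleave-'n-Seq, a transcribed, DNA-blocked target RNA library […] met 1 nM active affinity-purified piRISC with one synthetic guide at 33 °C for 0–8 or 0–960 min in HEPES–potassium acetate buffer, with or without 500 nM GTSF1 partner protein. Uncleaved targets were sequenced and normalised to depth and weakly complementary targets, with three trials pooled and k3 capped at 0.0001 min^-1. A burst-and-steady-state fit supplied the pre-steady-state cleavage rate.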

Sequence | pre-steady-state target cleavage rate
UCCUGGAUCAGCUUGCAUAGUAUUUUCUAA | 0.0024 ± 0.0028
UCCUGGAUGUCCUUGCAUAGUGUUUAGUUA | 0.00951 ± 0.0035
UCCUGCUACAGGUUGCAUAGUAUUAAGUUA | 0.00526 ± 0.0024
UCCUGCUACAGCUUGCAUAGUAUUUAUUUA | 0.0055 ± 0.0037
UCCUCCUACAGCAUGCAUAGUAUAUAGUUA | 0.00519 ± 0.0032
UCCUGGAUGUCGAACGUUAGUAUGUUAGUUA | < 0.0001
UCCUGGAUCAGCUUGACAUAGUAUUUAGUUA | 0.014 ± 0.0043
UCCUGCUACUGCUUGCAUAGUAUUUUGUUA | 0.0061 ± 0.0024
UCCUCCUACUCCUUGCAUAGUAUUUAGUAA | 0.00518 ± 0.0033
UCCUGGAUCAGCUUGCAUAGUAUUUAGUA | 0.00808 ± 0.0034
UCCUGCUACAGCUAGGAUAGUAUUUAGUUA | 0.011 ± 0.0037
UCCUGCUACAGCUUGCAUACGUAUUUAGUUA | 0.00225 ± 0.0022
UCCUGCUACACUUGCAUAGUAUUUAGUUA | 0.00903 ± 0.0027
UCCUCCUUCAGCAUGCAUAGUAUUUAGUUA | 0.0621 ± 0.018
UCCUGGAUCAGCAUGCAUAGUAUUUACUUA | 0.00233 ± 0.0029
UCCUCCUUCAGGUUGCAUAGUAUUUAGUUA | 0.0528 ± 0.012
UCCUCCUUCAGCUUGCAUAGUAUUUAGUAA | 0.012 ± 0.005

Sequence | pre-steady-state target cleavage rate
UCCUGGAACAGCUUGCAUAGUAAUUAGUAA | 0.00418 ± 0.0019
UCCUGAUACAGCUUGCAUAGUAUUUAGUUA | 0.0427 ± 0.014
UCCUCCUACAGCUUGCAUAGUAUUUUCAAA | 0.00383 ± 0.0027
UCCUGCUUCAGCUUGCAAAGUAUUUAGUUA | 0.0683 ± 0.018
UCCUGGAAGAGCUUGCAAAGUAUUUAGUUA | 0.018 ± 0.005
UCCUGGAUCAGCAUGCAUACUAUUUAGUUA | 0.00409 ± 0.0018
UCCUCCAUACAGCUUGCAUAGUAUUUAGUUA | 0.00733 ± 0.0027
UCCUGGAACAGCUUGCAUAGUAUUUACUUA | 0.00514 ± 0.0038
UCCUGGAACAGCUUGCAUAGUAAUUAGUUA | 0.00814 ± 0.0027
UCCUGGAUGAGCUUGCAUAGUAUUUAGUUUA | 0.0215 ± 0.0067
UCCUCGUACACCUUGCAUAGUAUUUAGUUA | 0.1 ± 0.029
UCCUCCGACAGCUUGCAUAGUAUUUAGUUA | 0.101 ± 0.026
UCCUGGUACAGCUUGGAUAGUUUUUAGUUA | 0.00333 ± 0.0047
UCCUGGAUCAGCUUGCAUAGUAUAUUGUUA | 0.00175 ± 0.004
UCCUGGAUGACCUUGCAUAGUAUUUACUUA | 0.00136 ± 0.007
UCCUGGAUGAGCUUGCAUAGUAUUUACGUUA | 0.00466 ± 0.0026
UCCUGGUACAGCUAGCAUAGUAUAUAGUUA | 0.00193 ± 0.0026

Same assay, conditions: auxiliary factor: none (no Gtsf1)

Sequence | pre-steady-state target cleavage rate
UCCUGGAUGUCGAUGCAUAGAUAAAUCAAA [g11:g17:cont:t1A] | 0.000572 ± 0.011
UCCUGGAUGUCGAACGUAUCUAUUUAAUUA | < 0.0001
UCCUGGUACAGCUUGCAUUGUAAUUAGUUA | 0.000275 ± 0.041
UCCUGGAACAGCUUGCAUUGUAUUUAGUAA | 0.00105 ± 0.01
UCCUGGAACAGCUUGCAUAGUAAUUUAGUUA | 0.00107 ± 0.01
UCCUGGAUGUCCUUGCAUAGUAUUUAGUUU [g2:g19:cont:t1U] | 0.00145 ± 0.0068

2 entries from above, as tab-separated lines.
Sequence	pre-steady-state target cleavage rate
UCCUGGAACAGCUUGCAUUGUAUUUAGUAA	0.00105 ± 0.01
UCCUGGAACAGCUUGCAUAGUAAUUUAGUUA	0.00107 ± 0.01
